Our source for the Measured concentration values is patent US10422791B2, “Haptens and conjugates derived from pyocyanin, antibodies thereof, and immunochemical method for detecting infections caused by Pseudomonas aeruginosa” (priority 2013, dated 2019).

This data set can be described thus: Recovery studies of the ELISA As230/PC1-BSA (AE) assay in spiked sputum. The note with it: non-hydrolyzed, diluted 20 times with PBhST. In general terms: ELISA stands for enzyme-linked immunosorbent assay.

Molecules are shown by their SMILES.

`Oc1cccc2nc3ccccc3nc12` [1-hydroxyphenazine]: the Measured concentration is 0.48 ± 0.05 nM (sputum spiked 0.5 nM), 4.32 ± 0.56 nM (sputum spiked 5 nM), 51.66 ± 2.38 nM (sputum spiked 50 nM) and 246.09 ± 43.14 nM (sputum spiked 250 nM).
